Assay results published in the supplement of paper PMC10735217.
Where a name gives a salt, the structure may show the parent alone. Some of the results follow. Repeats in this data set agree poorly, so a single value says little.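 Human kidney-derived cells stably carry a construct in which eight TEAD-binding elements drive luciferase, measured by luminescence in a drug-repurposing library screen. A hit is any compound whose signal exceeds the plate mean by more than five robust Z scores.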

Tested on: HEK293A TEAD-LUC reporter
Assay: TEAD-luciferase reporter activity (YAP activation), robust Z score vs plate; higher = stronger YAP/TEAD activation
Settings: 24 h

Row | SMILES | TEAD-luciferase reporter activity (compound concentration: 200 nM) | TEAD-luciferase reporter activity (compound concentration: 2 uM) | TEAD-luciferase reporter activity (compound concentration: 10 uM)
1 | O=C(OC1CC2CCC(C1)[N+]21CCCC1)C(O)(c1ccccc1)c1ccccc1 (stereo unspecified) [trospium chloride extended release] | inactive: -0.423 | inactive: -1.94 | inactive: 2.01
2 | C#C[C@]1(O)C=C[C@H]2[C@@H]3CCC4=CC(=O)CC[C@@H]4[C@H]3CC[C@@]21CC [gestodene, transdermal, Bayer] | inactive: -1.83 |  | inactive: -0.79
3 | C#C[C@]1(O)C=C[C@H]2[C@@H]3CCC4=CC(=O)CC[C@@H]4[C@H]3CC[C@@]21CC [gestodene, transdermal] |  | inactive: -0.769 | 
4 | COc1cc(Br)c2oc(C3CCNCC3)cc2c1 | inactive: -0.833 | inactive: -0.458 | inactive: 1.04
5 | CC[C@H](Nc1nc(NCc2cnc(C)cc2C)c2ncn(C(C)C)c2n1)[C@@H](C)O | inactive: 2.32 |  | inactive: -0.386
6 | CCOC(=O)N1CCC(=O)N(c2ccccc2)c2ccc(Cl)cc21 [analog of arfendazam] | inactive: -0.335 | inactive: -1 | inactive: -1.38
7 | CC(Cc1ccccc1)N[C@@H](C)COc1ccccc1 (stereo partly specified) | inactive: 1.45 | inactive: -0.943 | inactive: 2.3
8 | COC(=O)C[C@](O)(CCC(C)(C)O)C(=O)O[C@@H]1C(OC)=C[C@]23CCCN2CCc2cc4c(cc2[C@H]13)OCO4 [Harringtonine] | inactive: -0.433 | inactive: -2.27 | inactive: -1.59
9 | [O-][n+]1ccccc1S [omadine] |  | inactive: 3.42 | 
10 | [O-][n+]1ccccc1S [Zinc Pyrithione] | inactive: -0.996 | inactive: -2.38 | inactive: -3.37
11 | COc1cccc(C(=O)N2CCCC2C(=O)N2CCC(N3Cc4ccccc4C3=O)CC2)c1 (stereo unspecified) | inactive: -2.78 |  | inactive: 0.739
12 | C=CCN1CC[C@]23CCCCC2[C@H]1Cc1ccc(O)cc13 (stereo partly specified) | inactive: 2.88 | inactive: 0.492 | inactive: -1.14
13 | CC(C)(C)NCC(O)c1cc(Cl)c(N)c(C(F)(F)F)c1 (stereo unspecified) [mabuterol] | inactive: 0.807 | inactive: -0.624 | inactive: 3.15
14 | C[C@]12CCC(=O)C=C1CC[C@@H]1[C@@H]2[C@@H](O)C[C@]2(C)C(=O)CC[C@@H]12 | inactive: -0.29 | inactive: 1.17 | inactive: 0.309
15 | O=C1Nc2ccc(Cl)cc2C(c2ccccc2Cl)=NC1O (stereo unspecified) | inactive: -0.519 |  | inactive: 3.99
16 | CN1C(=S)CN=C(c2ccccc2)c2cc(Cl)ccc21 | inactive: -1.03 | inactive: 3.52 | inactive: -0.016
17 | CNCC(O)c1cc(OC)c(O)c(OC)c1 (stereo unspecified) | inactive: -1.08 | inactive: 0.0942 | active: 6.01
18 | CCN(C)C(=O)Oc1cccc([C@H](C)N(C)C)c1 [rivastigmine tartrate] | inactive: -2.78 | inactive: -0.574 | inactive: 0.237
19 | Cc1c2c(cn1C)NC(=O)CN=C2c1ccccc1 [premazepam] | inactive: 3.32 | inactive: -0.54 | inactive: 0.293

Row | SMILES | TEAD-luciferase reporter activity (compound concentration: 200 nM) | TEAD-luciferase reporter activity (compound concentration: 2 uM) | TEAD-luciferase reporter activity (compound concentration: 10 uM)
20 | CN(C(=N)Nc1cccc2ccccc12)c1cccc(I)c1 | inactive: -2.58 | inactive: -0.793 | inactive: -0.726
21 | COc1ccc2c3c1OC1C(=O)C=CC4(O)C(C2)N(C)CCC314 (stereo unspecified) [14-Hydroxycodei] | inactive: 4.72 | inactive: -0.483 | inactive: 0.613
22 | NCC(CC(=O)O)c1ccccc1 (stereo unspecified) [Phenibut] | inactive: -1.11 | inactive: -1.92 | inactive: 1.51
23 | CN1CCN(c2cccc3[nH]c(=O)oc23)CC1 [Pardoprunox (hydrochloride)] | inactive: -2 | inactive: 1.03 | inactive: 3.95
24 | C[C@@]1(CO)[C@H](O)CC[C@@]2(C)[C@H]1CC[C@H]1C[C@@H]3C[C@@]12CC[C@]3(O)CO | inactive: -1.74 | inactive: -0.831 | inactive: -0.684
25 | CCOC(=O)c1ncc2[nH]c3ccc(OCc4ccccc4)cc3c2c1COC | inactive: -0.995 | inactive: -0.567 | inactive: 0.217
26 | O=C(C[N+]12CCC(CC1)[C@@H](OC(=O)N(Cc1cc(F)c(F)c(F)c1)c1cccc(F)c1)C2)c1cccs1 | inactive: -0.714 | inactive: -0.541 | inactive: -0.153
27 | NCP(=O)(O)O | inactive: 0.462 |  | inactive: 0.00464
28 | OC[C@H]1O[C@@H](n2cnc3cc(Cl)c(Cl)cc32)[C@H](O)[C@@H]1O | inactive: -1.09 | inactive: -1.7 | inactive: 0.366
29 | CN1C[C@H](Cn2cncn2)CC2c3cccc4[nH]cc(c34)C[C@H]21 (stereo partly specified) | inactive: -1.47 | inactive: -0.228 | inactive: 2.83
30 | CCc1cccc2c(-c3nsc(CN4CCCC4)n3)cn(CC3CCCCC3)c12 | inactive: -0.305 | inactive: 1.09 | inactive: -0.718
31 | CC(C)N1CC2CCC(C1)N2C(=O)N1CCCC1 | inactive: -1.89 |  | inactive: 1.51
32 | COC(=O)[C@@H]1C[C@H](OC(C)=O)C(=O)[C@H]2[C@@]1(C)CC[C@H]1C(=O)O[C@H](c3ccoc3)C[C@]21C [Salvinorin A] | inactive: -1.41 | inactive: 2.52 | active: 7.06
33 | CN(C)CCc1c[nH]c2ccc(C3=CCN(C)CC3)cc12 | inactive: -0.372 | inactive: -2.11 | inactive: 0.703
34 | CCOP(=O)(OCC)C(C)NC(=O)N(CCCl)N=O (stereo unspecified) [fotemustine] | inactive: -0.771 | inactive: -2.12 | inactive: -1.41
35 | O=[N+]([O-])OCc1cccc(Cl)c1 | inactive: 1.52 | inactive: -1.99 | inactive: -0.36
36 | CCOC(=O)CC(NC(=O)C(Cc1ccc(N(CCCl)CCCl)cc1)NC(C)=O)C(=O)OCC (stereo unspecified) | inactive: -1.73 | inactive: -0.744 | inactive: 1.67
37 | NC(=O)OCC(Cl)(Cl)Cl | inactive: 0.723 | inactive: -0.243 | inactive: -0.234

Full records from above. Order of values: TEAD-luciferase reporter activity (compound concentration: 200 nM)	TEAD-luciferase reporter activity (compound concentration: 2 uM)	TEAD-luciferase reporter activity (compound concentration: 10 uM)
O=C(C[N+]12CCC(CC1)[C@@H](OC(=O)N(Cc1cc(F)c(F)c(F)c1)c1cccc(F)c1)C2)c1cccs1 as listed: inactive: -0.714	inactive: -0.541	inactive: -0.153
CCc1cccc2c(-c3nsc(CN4CCCC4)n3)cn(CC3CCCCC3)c12 as listed: inactive: -0.305	inactive: 1.09	inactive: -0.718
